Results are given in words; binding and its absence hold for the method and conditions named. In cells and extracts the contact can be indirect. Some entries that bind do so weakly or less than the wild type. For part of these data: Sequences can lack the tags named with a protein.
Key:
[1] = molecular target: HA-tagged wt zDHHC17 (mouse) (UniProt Q80TN5); assay: co-IP; HEK293T cells transfected with HA-zDHHC17 constructs and Flag-Smad7 constructs, with or without 5 ng/ml TGF-β1 for 30 min; lysis in 1% Triton X-100, 10% glycerol, 20 mM Tris-HCl pH 7.5, 150 mM NaCl; IP with an HA antibody or control IgG on Dynabeads overnight, IB with Flag or HA antibodies
[2] = molecular target: HA-tagged wt zDHHC17 (mouse) (UniProt Q80TN5); assay: co-IP; HEK293 cells co-expressing each of the 23 HA-tagged zDHHC PATs with Flag-Smad7; pull-down with anti-HA magnetic beads, immunoblotting with a Flag antibody
[3] = molecular target: T1, HA-tagged zDHHC12 (mouse) (UniProt Q8VC90); assay: as above
T1 sequence: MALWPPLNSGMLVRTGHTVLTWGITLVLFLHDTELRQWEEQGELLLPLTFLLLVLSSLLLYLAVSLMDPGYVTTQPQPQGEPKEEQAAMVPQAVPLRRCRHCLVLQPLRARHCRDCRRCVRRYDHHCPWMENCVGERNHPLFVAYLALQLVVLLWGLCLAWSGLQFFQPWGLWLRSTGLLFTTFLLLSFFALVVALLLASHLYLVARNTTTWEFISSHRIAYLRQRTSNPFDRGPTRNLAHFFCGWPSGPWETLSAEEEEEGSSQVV

Protein sequences, listed by entry. Tags and fused reporters are not part of them. Lines headed by an entry give the natural chain unless they say otherwise; changes in a name come on top.
UniProt Q80TN5: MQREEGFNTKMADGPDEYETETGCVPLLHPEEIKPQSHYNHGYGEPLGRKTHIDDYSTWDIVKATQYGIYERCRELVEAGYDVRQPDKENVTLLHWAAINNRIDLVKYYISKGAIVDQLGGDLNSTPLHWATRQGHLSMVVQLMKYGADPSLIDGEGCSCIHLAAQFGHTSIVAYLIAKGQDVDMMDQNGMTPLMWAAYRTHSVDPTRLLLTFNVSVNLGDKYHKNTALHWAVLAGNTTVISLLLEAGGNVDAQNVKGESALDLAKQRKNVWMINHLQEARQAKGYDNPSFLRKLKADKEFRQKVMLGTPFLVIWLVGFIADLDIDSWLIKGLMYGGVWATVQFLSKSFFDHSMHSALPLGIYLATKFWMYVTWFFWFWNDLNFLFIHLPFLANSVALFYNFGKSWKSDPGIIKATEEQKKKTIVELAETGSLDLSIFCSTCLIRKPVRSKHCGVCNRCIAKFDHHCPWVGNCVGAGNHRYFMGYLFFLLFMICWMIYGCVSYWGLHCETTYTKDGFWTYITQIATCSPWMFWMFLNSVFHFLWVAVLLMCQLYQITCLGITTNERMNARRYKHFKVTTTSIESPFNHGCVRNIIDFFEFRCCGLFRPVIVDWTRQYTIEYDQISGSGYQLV
UniProt Q8BQQ1: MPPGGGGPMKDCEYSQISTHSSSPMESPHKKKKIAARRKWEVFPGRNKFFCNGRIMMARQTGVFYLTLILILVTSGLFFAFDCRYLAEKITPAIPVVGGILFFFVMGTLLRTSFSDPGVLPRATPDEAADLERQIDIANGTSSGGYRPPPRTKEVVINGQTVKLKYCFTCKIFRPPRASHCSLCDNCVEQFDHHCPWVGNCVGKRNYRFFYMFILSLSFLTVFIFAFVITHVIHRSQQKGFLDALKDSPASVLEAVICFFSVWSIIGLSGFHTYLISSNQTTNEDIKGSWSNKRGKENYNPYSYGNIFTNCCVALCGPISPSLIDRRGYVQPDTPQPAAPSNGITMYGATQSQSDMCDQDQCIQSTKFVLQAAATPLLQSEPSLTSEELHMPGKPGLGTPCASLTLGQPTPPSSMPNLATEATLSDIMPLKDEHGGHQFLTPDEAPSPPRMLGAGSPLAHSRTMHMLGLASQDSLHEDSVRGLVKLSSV
UniProt Q8VDZ4: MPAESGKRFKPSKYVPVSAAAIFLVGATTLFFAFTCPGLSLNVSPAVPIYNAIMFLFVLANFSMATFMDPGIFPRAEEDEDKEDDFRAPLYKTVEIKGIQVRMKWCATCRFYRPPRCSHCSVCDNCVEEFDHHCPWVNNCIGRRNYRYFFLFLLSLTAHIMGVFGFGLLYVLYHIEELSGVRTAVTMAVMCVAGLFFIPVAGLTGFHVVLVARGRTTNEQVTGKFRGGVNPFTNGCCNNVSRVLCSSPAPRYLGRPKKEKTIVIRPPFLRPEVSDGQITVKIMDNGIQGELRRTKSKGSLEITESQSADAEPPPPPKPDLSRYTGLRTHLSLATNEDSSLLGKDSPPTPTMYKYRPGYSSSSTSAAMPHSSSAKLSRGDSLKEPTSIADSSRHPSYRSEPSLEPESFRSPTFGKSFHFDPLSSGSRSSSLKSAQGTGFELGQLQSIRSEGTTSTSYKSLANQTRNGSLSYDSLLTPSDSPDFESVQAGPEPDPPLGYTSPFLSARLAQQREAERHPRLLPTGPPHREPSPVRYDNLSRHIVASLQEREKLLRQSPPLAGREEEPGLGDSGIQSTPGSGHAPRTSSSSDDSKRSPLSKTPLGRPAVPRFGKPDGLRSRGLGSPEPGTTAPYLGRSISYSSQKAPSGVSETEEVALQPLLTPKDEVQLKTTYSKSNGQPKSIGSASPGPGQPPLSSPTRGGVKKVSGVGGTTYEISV
UniProt P59268: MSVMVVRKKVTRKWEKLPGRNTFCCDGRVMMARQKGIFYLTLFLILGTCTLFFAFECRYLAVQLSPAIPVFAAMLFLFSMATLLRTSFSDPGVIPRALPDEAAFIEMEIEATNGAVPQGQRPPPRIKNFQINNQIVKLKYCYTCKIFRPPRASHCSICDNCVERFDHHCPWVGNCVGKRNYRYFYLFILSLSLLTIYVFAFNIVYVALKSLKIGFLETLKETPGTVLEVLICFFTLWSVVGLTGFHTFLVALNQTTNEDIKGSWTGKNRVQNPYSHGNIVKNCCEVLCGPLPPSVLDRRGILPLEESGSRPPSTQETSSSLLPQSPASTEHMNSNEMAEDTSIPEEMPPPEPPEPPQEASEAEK
UniProt O15105: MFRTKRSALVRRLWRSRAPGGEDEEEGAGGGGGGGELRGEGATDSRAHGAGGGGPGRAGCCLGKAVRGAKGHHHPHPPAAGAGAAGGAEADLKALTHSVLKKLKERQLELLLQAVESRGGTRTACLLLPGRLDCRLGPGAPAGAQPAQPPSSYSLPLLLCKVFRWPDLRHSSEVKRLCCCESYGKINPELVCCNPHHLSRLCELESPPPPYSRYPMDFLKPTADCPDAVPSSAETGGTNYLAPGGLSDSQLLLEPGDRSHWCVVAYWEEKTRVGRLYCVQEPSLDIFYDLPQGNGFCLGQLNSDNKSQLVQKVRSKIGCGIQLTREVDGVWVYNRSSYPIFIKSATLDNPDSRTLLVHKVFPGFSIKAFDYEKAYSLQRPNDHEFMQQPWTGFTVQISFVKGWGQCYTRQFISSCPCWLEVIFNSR

[4] = molecular target: T2, HA-tagged zDHHC13 (mouse) (UniProt Q9CWU2); assay: as above
T2 sequence: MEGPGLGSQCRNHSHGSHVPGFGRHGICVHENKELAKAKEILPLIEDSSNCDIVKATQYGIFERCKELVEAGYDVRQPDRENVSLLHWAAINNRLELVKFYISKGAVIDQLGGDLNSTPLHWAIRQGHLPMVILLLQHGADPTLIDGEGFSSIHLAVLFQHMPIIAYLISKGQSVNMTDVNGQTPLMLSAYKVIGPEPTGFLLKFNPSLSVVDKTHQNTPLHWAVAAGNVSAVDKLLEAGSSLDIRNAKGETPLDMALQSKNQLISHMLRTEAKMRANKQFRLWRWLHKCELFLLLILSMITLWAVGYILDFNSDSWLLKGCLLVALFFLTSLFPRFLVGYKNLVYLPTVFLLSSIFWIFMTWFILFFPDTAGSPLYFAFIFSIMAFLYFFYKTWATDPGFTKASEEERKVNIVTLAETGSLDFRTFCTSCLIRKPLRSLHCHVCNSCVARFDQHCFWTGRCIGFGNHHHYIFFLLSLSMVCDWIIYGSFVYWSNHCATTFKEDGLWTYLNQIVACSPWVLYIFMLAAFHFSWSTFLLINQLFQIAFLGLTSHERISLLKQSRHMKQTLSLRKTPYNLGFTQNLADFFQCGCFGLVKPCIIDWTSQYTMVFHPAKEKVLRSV

[5] = molecular target: HA-tagged zDHHC14 (mouse) (UniProt Q8BQQ1); assay: as above
HA-tagged zDHHC3 (mouse) = molecular target: T3, HA-tagged zDHHC3 (mouse) (UniProt Q8R173); assay: as above
T3 sequence: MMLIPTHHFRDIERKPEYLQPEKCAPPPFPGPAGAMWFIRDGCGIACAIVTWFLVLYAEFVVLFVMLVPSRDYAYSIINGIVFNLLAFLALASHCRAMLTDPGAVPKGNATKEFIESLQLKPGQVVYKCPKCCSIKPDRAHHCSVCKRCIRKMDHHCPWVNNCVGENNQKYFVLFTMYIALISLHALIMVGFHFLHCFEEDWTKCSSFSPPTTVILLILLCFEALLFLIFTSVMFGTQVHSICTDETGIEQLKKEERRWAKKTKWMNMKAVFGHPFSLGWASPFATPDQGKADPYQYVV

HA-tagged zDHHC5 (mouse) = HA-tagged zDHHC5 (mouse) (UniProt Q8VDZ4); assay: as above
HA-tagged zDHHC7 (mouse) = molecular target: T4, HA-tagged zDHHC7 (mouse) (UniProt Q91WU6); assay: as above
T4 sequence: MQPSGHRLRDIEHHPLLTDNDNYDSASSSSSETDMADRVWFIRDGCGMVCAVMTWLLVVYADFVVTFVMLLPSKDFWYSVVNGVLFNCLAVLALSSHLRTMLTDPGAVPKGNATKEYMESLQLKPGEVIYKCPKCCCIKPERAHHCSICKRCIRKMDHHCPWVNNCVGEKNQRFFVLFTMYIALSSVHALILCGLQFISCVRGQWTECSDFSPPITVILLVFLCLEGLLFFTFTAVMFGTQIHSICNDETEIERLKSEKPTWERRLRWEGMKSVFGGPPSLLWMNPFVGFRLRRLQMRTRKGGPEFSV

HA-tagged zDHHC9 (mouse) = HA-tagged zDHHC9 (mouse) (UniProt P59268); assay: as above
[6] = molecular target: HA-tagged zDHHC17 W130A mutant (UniProt Q80TN5); assay: co-IP; HEK293T cells transfected with HA-zDHHC17 constructs and Flag-Smad7 constructs, with or without 5 ng/ml TGF-β1 for 30 min; lysis in 1% Triton X-100, 10% glycerol, 20 mM Tris-HCl pH 7.5, 150 mM NaCl; IP with an HA antibody or control IgG on Dynabeads overnight, IB with Flag or HA antibodies

binding [1] | binding [2] | binding [3] | binding [4] | binding [5] | binding (HA-tagged zDHHC3 (mouse)) | binding (HA-tagged zDHHC5 (mouse)) | binding (HA-tagged zDHHC7 (mouse)) | binding (HA-tagged zDHHC9 (mouse)) | binding [6] | Substance
binds |  |  |  |  |  |  |  |  |  | FLAG-Smad7FC (fragment C) (from UniProt O15105 204-426) (domain or fragment)
binds |  |  |  |  |  |  |  |  |  | FLAG-Smad7FN (fragment N) (from UniProt O15105 1-261) (domain or fragment)
binds | binds | binds | binds | binds | binds | binds | binds | binds | binds | Flag-tagged wt Smad7 (from UniProt O15105 1-426)
